Some of the results follow. Shown are side measurements of this screen, not its main read-out; they come without a call. Compounds called inactive in the main read-out are mostly missing here. Words in brackets tell the shape of the fitted curve; partial curves, single points and poor fits give uncertain potencies.
Experiment: qHTS Assay to Find Inhibitors of Chronic Active B-Cell Receptor Signaling
Conditions: ABC-DLBCL IkBa-CBG/CBR reporter, luminescence ratio (green luciferase fused to IkBa over red control in TMD8 lymphoma cells), 4 h
Summary of the method: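 Compounds up to 46 uM were incubated four hours with TMD8 cells whose green CBG68 luciferase is fused to IkappaBalpha; red CBR luminescence normalised the signal, and concentration-effect curves were fitted to fusion, red and ratio data.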

[1] = measured here: CBR red luminescence, cell number
[2] = measured here: IkBa-CBG green luminescence

Compound	AC50 [1]	AC50 [2]
CN(CCOC(=O)/C=C/c1ccco1)Cc1ccccc1	3.98 µM [rising, single point]	
O=C1NCCN/C1=C\C(=O)c1cccc(Br)c1	11.2 µM [falling, single point]	
O=S(=O)(NCCc1csc2nc(-c3ccc(Cl)cc3)nn12)c1ccc2c(c1)OCCO2	3.55 µM [rising, full curve]	
COc1ccc(OC)c(CN2CCC(CNC(=O)Nc3cccc(Cl)c3)CC2)c1	35.5 µM [falling, partial curve, poor fit]	
CCCCC(=O)NC(Nc1nc(C2CC2)cs1)(C(=O)OCC)C(F)(F)F (centres undefined)	35.5 µM [falling, partial curve, poor fit]	
Cc1cccc(-c2noc(-c3c(C)noc3C)n2)c1	10 µM [rising, single point]	
Cc1ccc(SCC(=O)Nc2cccc(C)c2)cc1	17.8 µM [falling, partial curve, poor fit]	
COc1cc(/C=C/C(=O)OCC(=O)N2CCC(Cc3ccccc3)CC2)ccc1O	23.1 µM [falling, single point]	
O=C1c2ccsc2SCCN1Cc1cccc(Cl)c1	23.1 µM [falling, single point]	
O=C1C=CC(=O)N1c1cccc(-c2ccccc2)c1	11.2 µM [falling, partial curve]	
CC(=O)c1c(C)oc2ccc(NS(=O)(=O)c3cccs3)cc12	22.4 µM [falling, single point]	
CCCc1nc2ccccc2c(C(=O)OCC(=O)Nc2cccc(S(=O)(=O)N3CCOCC3)c2)c1CC	11.2 µM [falling, partial curve, poor fit]	11.2 µM [rising, partial curve, poor fit]
O=C(NC1CCCCC1)N1CCCCCCC1	15.8 µM [falling, partial curve]	31.6 µM [rising, partial curve, poor fit]
Cc1ccc(C(=O)N2CCN3C(=O)c4ccccc4C23c2ccc(Cl)cc2)cc1 (centres undefined)	29.1 µM [falling, single point]	
O=C(Cn1c(=O)oc2ccccc21)Nc1cccc(Cl)c1	5.62 µM [falling, partial curve]	
CCOc1ccc(N=C2SC(C(=O)Nc3ccccc3C#N)C(N)=C2C(=O)Nc2ccc(Cl)cc2)cc1 (centres undefined)		14.1 µM [rising, partial curve, poor fit]
Cc1cc2nc(-c3ccc(SCC(=O)Nc4ccc(S(=O)(=O)NC5CC5)cc4)nc3)[nH]c2cc1C	1.84 µM [falling, partial curve]	

Two entries from above, in markdown:

| Compound | AC50 [1] | AC50 [2] |
| --- | --- | --- |
| CN(CCOC(=O)/C=C/c1ccco1)Cc1ccccc1 | 3.98 µM [rising, single point] |  |
| COc1ccc(OC)c(CN2CCC(CNC(=O)Nc3cccc(Cl)c3)CC2)c1 | 35.5 µM [falling, partial curve, poor fit] |  |

From PubChem BioAssay AID493014 (National Center for Advancing Translational Sciences (NCATS), 2011)
